In patent US20230226012A1, “USE OF USNIC ACID, A SALT OF USNIC ACID, OR A FORMULATION THEREOF IN THE PREPARATION OF ANTI-AVIAN COCCIDIOSIS DRUGS OR FEED ADDITIVES” (priority 2022, published 2023):
At least one structure is not confirmed: it was looked up by name or label, or the drawing left a doubt.

System: Eimeria tenella
Experiment: Anticoccidial test in chickens orally inoculated with sporulated oocysts of Eimeria tenella (anticoccidial index, ACI)
Assay type: in vivo
From the text: Male chicks from layer aged 1 day were selected and raised to 12-day-old. Each was weighed, while excluding thin or overweight individuals, healthy chickens with individual weight differences of less than 10 g were selected, and randomly divided into thirteen groups with each group including thirty chickens. Among them, ten groups were used as drug groups, one group as a model group, one group as a diclazuril group, and one group as a blank control group. Each chicken aged 12 days of the drug groups was subject to drug administration through mixing with feed, while that of the diclazuril group was administrated though drinking water. […]
The anticoccidial index (ACI) criteria were calculated by […]
Among them, the relative weight gain rate was calculated by […]
The survival rate was calculated by […]
The lesion value was calculated by […]
4 points: the cecum swells due to being full of a large amount of blood or cecum core with or without fecal residue, and it is also scored 4 points when the chicken dies for coccidiosis. […]
The oocyst value and the relative oocyst production (ROP) were calculated by collecting the chicken feces of each group, counting the number of oocysts in the feces according to McMaster counting, calculating the number of oocysts per gram of feces of each group, and obtaining the oocyst value by conversion according to Table 2. […]

Row | Compound | Effect against avian coccidiosis (conclusion) (Example 2) | Therapeutic effect against avian coccidiosis (conclusion) (Example 3, 0.3, 0.5, 1 parts usnic acid sodium in glucose, 5 kg/ton in feed)
1 | CC(=O)c1c(O)c(C)c(O)c2c1OC1=CC(=O)C(C(C)=O)C(=O)C12C (centres unmarked) [usnic acid] | high effect | –
2 | CC(=O)c1c(O)c(C)c(O)c2c1OC1=CC(=O)C(C(C)=O)C(=O)C12C (centres unmarked) [usnic acid sodium] | – | related to the dose administered
